# About 5,500 (1.4%) of roughly 400,000 compounds were called active. The inconclusive results got no clear call from the source; some entries with a clear call stand among them for comparison. The call rests on the fitted dose curve; in most records, active means well fitted cell-killing curve with a large enough effect; inconclusive means small, poorly fitted or top-dose-only effect, or effect the other way; inactive means flat fitted curve, though single readings scatter. A potency beside an inconclusive call is a rough fit, not a confirmed value.
# Assay: qHTS assay for MDR1-selective chemotherapeutics: Primary screen using the parental adenocarcinoma cell KB-3-1; further: nearly all actives have a fitted effect of over 60% in size
# Details: KB-3-1 viability, CellTiter-Glo ATP luminescence, 72 h; activity change, negative = cytotoxic: at 46.1 µM (top of the series)
# Summary of the method: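 Cytotoxicity in the drug-sensitive parental line KB-3-1 was scored as loss of CellTiter-Glo luminescence following 72 h incubation with compound. Values come from curve fitting of normalized concentration-response data.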
# On the % scale 0 is the no-effect control and ±100 the full control effect; potency means the concentration at half of the fitted maximal effect.
Structure (SMILES),Potency,"activity change, negative = cytotoxic"
Cc1nc2c(cnn2-c2ccccc2Cl)c(=O)n1-c1ccc(N2CCC(C)CC2)cc1,active: 16.4 µM,–
CS(=O)(=O)Nc1cccc(-c2cc(NC=O)c3ncc(-c4ccc(F)c(Cl)c4)n3c2)c1,"inconclusive: 25.9 µM [cytotoxic, single point]",–
CCCn1c(CN2CCN(c3ccc(OC)cc3)CC2)nc2c1c(=O)[nH]c(=O)n2C,"inconclusive: 16.4 µM [cytotoxic, single point]",–
COc1ccc2c(CN3CCN(S(=O)(=O)c4cccs4)CC3)cc(=O)oc2c1,"inconclusive: 29.1 µM [cytotoxic, single point]",–
CCCn1nnnc1NCc1ccccc1Cl,inactive,–
Cc1ccc(-n2cnc3scc(-c4cccs4)c3c2=O)cc1,"inconclusive: 14.6 µM [cytotoxic, single point]",–
S=C1SCN(CCc2ccccc2)CN1CCc1ccccc1,"inconclusive: 29.1 µM [cytotoxic, single point]",–
O=c1c2ccccc2c(-c2ccc(O)cc2)nn1-c1cccc(C(F)(F)F)c1,"inconclusive: 29.1 µM [cytotoxic, single point]",–
O=S(=O)(Nc1ccc(O)c(Sc2nc3ccccc3s2)c1)c1ccc(Cl)cc1,"inconclusive: 29.1 µM [cytotoxic, single point]",–
Cc1nc(-c2ccc(S(=O)(=O)NCC3CCN(C(=O)OC(C)(C)C)CC3)s2)cs1,inactive,–
COc1cccc(NC(=O)CN(C)C(=O)c2cccnc2Nc2cccc(C(F)(F)F)c2)c1,"inconclusive: 29.1 µM [cytotoxic, single point]",–
O=C(CN1CCCCC1)Nc1ccc(NC(=O)c2ccccc2Cl)cc1Cl,active: 23.1 µM,–
CN(C)c1cccc(C(=O)NC2CCCCCC2)c1,inactive,–
Cn1c(=O)c2c(ncn2CC2OCCO2)n(C)c1=O,inactive,–
COc1cc(CN(C2CCCCC2C)S(=O)(=O)c2ccc(S(=O)(=O)NC3CC3)cc2)cc(OC)c1OC (stereo not drawn),"inconclusive: 29.1 µM [cytotoxic, single point]",–
CCc1cc(SC#N)cc(C)c1NC(=O)CCl,"inconclusive: 13 µM [cytotoxic, partial curve]",–
NC(Cc1ccc(C(F)(F)F)cc1)c1csc(Nc2ccc(C(=O)NCc3ccco3)cn2)n1 (stereo not drawn),"inconclusive: 29.1 µM [cytotoxic, single point]",–
C=CCN(CC=C)c1ccc(/C=C/c2ccnc3ccccc23)cc1,"inconclusive: 10.3 µM [cytotoxic, partial curve, poor fit]",–
CC(Oc1cc2oc(=O)c3c(c2cc1Cl)CCCC3)C(=O)NCC1CCC(C(=O)O)CC1 (stereo not drawn),"inconclusive: 10.3 µM [rising, partial curve, poor fit]",–
Oc1c(N=Nc2ccccc2)sc2ccccc12,"inconclusive: 4.11 µM [cytotoxic, full curve, poor fit]",–
O=C(O)CCSCC(=O)c1ccc2c(c1)OCCO2,inactive,–
O=C(c1cccc(S(=O)(=O)N2CCCC2)c1)N(Cc1ccco1)C1CCS(=O)(=O)C1 (stereo not drawn),"inconclusive: 23.1 µM [rising, single point]",–
Cn1c(=O)c2c(nc(SCCCO)n2Cc2ccccc2Cl)n(C)c1=O,"inconclusive: 23.1 µM [cytotoxic, single point]",–

Structure (SMILES),Potency,"activity change, negative = cytotoxic"
Cc1nc(NC(=O)CSc2cc(C)c3ccccc3n2)c(Cl)cc1Cl,"inconclusive: 29.1 µM [cytotoxic, single point]",–
COc1ccc(/C=C/c2onc(C)c2S(=O)(=O)N2CCC(C(=O)N3CCCCCC3)CC2)cc1,"inconclusive: 29.1 µM [cytotoxic, single point]",–
O=C(Nc1ccc(C(=O)N2CCCC2)cc1)c1ccccc1F,"inconclusive: 15.8 µM [cytotoxic, single point]",–
COc1ccc(NC(=O)N(C)C[C@H]2OCc3cnnn3CCCC(=O)N([C@@H](C)CO)C[C@H]2C)cc1,"inconclusive: 3.26 µM [rising, partial curve, poor fit]",–
COc1ccc(-c2csc(NC(=S)NC(=O)/C=C/c3ccco3)n2)cc1Br,active: 5.17 µM,–
N#C/C(=C/c1ccc(N2CCOCC2)o1)C(=O)NC1CCCCC1,"inconclusive: 29.1 µM [rising, single point]",–
COc1ccc(-c2noc(CSc3nc(-c4ccccc4)cc(=O)[nH]3)n2)cc1OC,inactive,–
N#CC(=C=[N-])C1=C(C#N)C(c2ccccc2F)C([n+]2ccccc2)C(O)(C2CC2)N1 (stereo not drawn),"inconclusive: 23.1 µM [cytotoxic, single point]",–
N/C(=N/OC(=O)c1ccc(Cl)cc1)c1ncc([N+](=O)[O-])s1,inactive,–
Cc1ccc(Sc2ccc(N3CCC(C(=O)Nc4ccc(Cl)cc4)CC3)nn2)cc1,inactive,–
CCN1CCN(c2ccc(NC(=O)c3ccccc3F)cc2Cl)CC1,"inconclusive: 16.4 µM [rising, single point]",–
CCN1CCN(c2nc(-c3cccnc3)nc3ccccc23)CC1,inactive,–
CC(C)c1ccc(NC(=S)NN2C(C)CCCC2C)cc1 (stereo not drawn),inactive,–
CCc1nn(CC(=O)NCCCc2ccccc2)c(=O)c2cc3cc(F)ccc3n12,"inconclusive: 18.4 µM [rising, single point]",–
CN(C)c1ccc(/C=C2\c3ccccc3-c3ccc(N(C)C)cc32)cc1,inactive,–
O=C(N/N=C/c1ccc(-c2cccc(C(F)(F)F)c2)o1)c1cccc(F)c1,"inconclusive: 35.5 µM [cytotoxic, single point]",–
CCOc1ccc(CN(C)C(=O)c2ccc(S(=O)(=O)N(C)c3ccccc3OC)cc2)cc1,"inconclusive: 29.1 µM [cytotoxic, single point]",–
CN(C)c1ccc(C=c2c3ccccc3n3c2c2c([n+]3C)CCCC2)cc1,"inconclusive: 1.03 µM [cytotoxic, full curve, poor fit]",–
COc1ccc(N(C)S(=O)(=O)c2cccc(C(=O)NC3CCCCC3C)c2)cc1 (stereo not drawn),"inconclusive: 20.6 µM [cytotoxic, single point]",–
COc1cc(C(=O)NC2CCN(C)CC2)ccc1Nc1ncc2c(n1)N(C1CCC(O)CC1)CCC(=O)N2C (stereo not drawn),"inconclusive: 20.6 µM [cytotoxic, single point]",–
Cc1ccc(NS(=O)(=O)c2ccc(OCC(=O)NCc3cccnc3)cc2)cc1,"inconclusive: 20.6 µM [rising, single point]",–
O=C(NCCc1c[nH]c2ccccc12)C(=O)NCC(c1ccco1)N1CCN(c2ccccc2F)CC1 (stereo not drawn),–,inconclusive: -35% [cytotoxic]
Cc1ccc(C(=O)Nc2ccc(S(=O)(=O)N(Cc3ccccc3)c3ccccc3)cc2)cc1,"inconclusive: 11.6 µM [cytotoxic, single point]",–

# Full records as entered above:
# Cc1ccc(Sc2ccc(N3CCC(C(=O)Nc4ccc(Cl)cc4)CC3)nn2)cc1 as listed: Potency: inactive
# COc1cc(C(=O)NC2CCN(C)CC2)ccc1Nc1ncc2c(n1)N(C1CCC(O)CC1)CCC(=O)N2C (stereo not drawn) as listed: Potency: inconclusive: 20.6 µM [cytotoxic, single point]
# N#CC(=C=[N-])C1=C(C#N)C(c2ccccc2F)C([n+]2ccccc2)C(O)(C2CC2)N1 (stereo not drawn) as listed: Potency: inconclusive: 23.1 µM [cytotoxic, single point]

# Following part

Structure (SMILES),Potency,"activity change, negative = cytotoxic"
CCc1ccc(-c2nc(CN3CCC(C(=O)NCc4ccco4)CC3)c(C)o2)cc1,"inconclusive: 20.6 µM [cytotoxic, single point]",–
COc1ccccc1NC(=O)N1CCCC1,"inconclusive: 0.184 µM [rising, full curve]",–
CCOC(=O)c1sc(NC(=O)c2ccc(S(=O)(=O)N(C)C)cc2)cc1C,"inconclusive: 35.5 µM [cytotoxic, single point]",–
Cc1ccc(NC(=O)Cc2n[nH]c(=O)c3ccccc23)cc1S(=O)(=O)N1CCCCCC1,"inconclusive: 16.4 µM [cytotoxic, single point]",–
OCCC1CN(Cc2nc3ccccc3s2)CCN1C1CCCC1 (stereo not drawn),"inconclusive: 0.0058 µM [cytotoxic, full curve, poor fit]",–
COc1ccc(CCNc2nc(-c3ccc(NC(C)=O)cc3)cs2)cc1OC,"inconclusive: 13 µM [cytotoxic, single point]",–
Cc1ccc2c(c1)cc(CN(Cc1cccnc1)C(=O)NCc1ccccc1)c1nnnn12,"inconclusive: 29.1 µM [rising, single point]",–
COc1ccc2c(CNCc3cccs3)c(C(=O)O)n(Cc3ccccc3C)c2c1,inactive,–
CN(C)CCn1c2c(c(SCC(=O)Nc3cccc4ccccc34)nc1=O)CCCC2,inactive,–
CCc1cccc(NS(=O)(=O)c2ccc3c(c2)n(C)c(=O)n3C)c1,inactive,–
CCOC(=O)/C(=C/c1c(C)n(C)c2ccc([N+](=O)[O-])cc12)C(C)=O,active: 23.1 µM,–
CC(C)Oc1ccc(C(=O)N2CCCc3ccccc32)cc1,inactive,–
CCC(NC(=O)N(Cc1ccccc1)Cc1ccc2c(c1)OCO2)(C(F)(F)F)C(F)(F)F,"inconclusive: 29.1 µM [cytotoxic, single point]",–
CCOc1cc(CNc2ccc(O)cc2)cc(Cl)c1OCc1ccccc1,inactive,–
COc1cccc(NC(=O)C2CCCN2C(=O)Nc2cccc(F)c2)c1 (stereo not drawn),"inconclusive: 9.2 µM [rising, partial curve, poor fit]",–
COC(=O)c1c(NC(=O)c2ccccc2)sc(C(N)=O)c1C,"inconclusive: 3.26 µM [cytotoxic, full curve]",–
CS(=O)(=O)Nc1cccc(C2=NN(S(C)(=O)=O)C(c3ccc4c(c3)OCO4)C2)c1 (stereo not drawn),active: 14.6 µM,–
Cn1nc(-c2ccccc2F)c2cc(C(=O)N3CCN(c4ccccc4F)CC3)sc21,"inconclusive: 18.4 µM [cytotoxic, single point]",–
O=C1C(=C(c2ccccc2)N2CCOCC2)Cc2ccccc21,active: 7.31 µM,–
Cn1c(=O)c2c(nc(Cl)n2Cc2ccc(Cl)c(Cl)c2)n(C)c1=O,"inconclusive: 29.1 µM [cytotoxic, single point]",–
CCOc1ccc(NC(=O)CN2CCN(c3ccc(F)cc3)CC2)cc1S(=O)(=O)N1CCCC1,inactive,–
Cc1cc(-c2nnc(CCC(=O)N(C)Cc3cccc4ccccc34)o2)no1,"inconclusive: 14.6 µM [cytotoxic, full curve, poor fit]",–

# Reference: PubChem BioAssay AID1347075 (National Center for Advancing Translational Sciences (NCATS), 2019)
